Laboratory results as given in article PMC4333095.
At least one result comes from cells or an extract, where the contact may be indirect. For part of these data: A negative result means that nothing was seen under these conditions. For part of these data: Construct, isoform or probe ends are uncertain for at least one entry.

The chains behind the UniProt entries cited, without tags or fusion partners. Where a name states a change or a piece, a line headed by the entry shows the natural chain unless it says otherwise.
UniProt Q5TYW1: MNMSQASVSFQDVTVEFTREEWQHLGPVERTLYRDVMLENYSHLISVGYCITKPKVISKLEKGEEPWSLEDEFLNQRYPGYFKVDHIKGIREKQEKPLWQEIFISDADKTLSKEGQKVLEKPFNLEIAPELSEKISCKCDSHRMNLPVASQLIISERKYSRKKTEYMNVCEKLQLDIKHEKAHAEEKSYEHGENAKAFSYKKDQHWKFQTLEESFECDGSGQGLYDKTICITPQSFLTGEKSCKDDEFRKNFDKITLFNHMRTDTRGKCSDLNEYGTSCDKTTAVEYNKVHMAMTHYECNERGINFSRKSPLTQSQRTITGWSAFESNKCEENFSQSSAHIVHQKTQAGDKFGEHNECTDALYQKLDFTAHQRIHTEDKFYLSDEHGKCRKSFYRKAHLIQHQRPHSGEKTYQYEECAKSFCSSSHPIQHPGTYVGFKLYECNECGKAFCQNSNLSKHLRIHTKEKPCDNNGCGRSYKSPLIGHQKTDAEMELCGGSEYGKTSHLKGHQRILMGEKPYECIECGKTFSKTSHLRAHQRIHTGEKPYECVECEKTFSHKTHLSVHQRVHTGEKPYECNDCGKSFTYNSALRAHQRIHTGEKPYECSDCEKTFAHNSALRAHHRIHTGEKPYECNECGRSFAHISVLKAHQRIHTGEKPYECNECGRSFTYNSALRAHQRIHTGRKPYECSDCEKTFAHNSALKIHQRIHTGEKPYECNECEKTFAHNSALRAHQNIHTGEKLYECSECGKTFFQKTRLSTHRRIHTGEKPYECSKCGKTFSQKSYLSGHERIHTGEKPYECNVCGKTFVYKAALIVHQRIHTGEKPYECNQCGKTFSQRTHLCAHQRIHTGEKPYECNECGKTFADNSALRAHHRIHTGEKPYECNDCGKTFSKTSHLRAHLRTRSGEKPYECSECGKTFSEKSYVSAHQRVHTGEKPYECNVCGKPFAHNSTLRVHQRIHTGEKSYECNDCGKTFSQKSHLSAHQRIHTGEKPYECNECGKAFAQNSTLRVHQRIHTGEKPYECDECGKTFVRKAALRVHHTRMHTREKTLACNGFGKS

Key:
[1] = molecular target: ZNF658-myc-DDK (Homo sapiens) (UniProt Q5TYW1); experiment: competition EMSA; conditions: 200-fold excess over probe N1; 50 fmol IRD probe, 5 ug Caco-2 protein extract, nondenaturing 5% PAGE; pH and temperature not given (ref 16); protein in a lysate after overexpression; residues 1-1059; protein details: C-terminal myc-DDK; letters put together from the description
[2] = molecular target: ZNF658 deltaZF12-15-myc-DDK del770-904 (Homo sapiens) (UniProt Q5TYW1); experiment: EMSA; conditions: 50 fmol IRD probe, 5 ug Caco-2 protein extract, nondenaturing 5% PAGE; pH and temperature not given (ref 16); protein in a lysate after overexpression; residues 1-1059; protein details: C-terminal myc-DDK; label: IRD
[3] = molecular target: ZNF658-myc-DDK (Homo sapiens) (UniProt Q5TYW1); experiment: EMSA supershift; conditions: anti-myc supershift of the specific band; 50 fmol IRD probe, 5 ug Caco-2 protein extract, nondenaturing 5% PAGE; pH and temperature not given (ref 16); protein in a lysate after overexpression; residues 1-1059; protein details: C-terminal myc-DDK; label: IRD

“CGAGTGTTCTGCTTGCGCAGACGCAAGGCTGGGCACTCCCCCGGGAGTGA (double strand) [50-bp ZTRE competitor (-124 to -75)]”: binds [1].
“GTGGCGGGAGGAGCCTAAGGGACGAGGAAAGGCGAGTGTTCTGCTTGCGCAGACGCAAGGCTGGGCACTCCCCCGGGAGTGAGGGTTGCTGGGCCTGATGACGTGGCTTGGCAACGTCCCTACCGCCGCTGCTTCCCGGGAACCTGGCGCCGCCGGAACTGATCGCGGCCTAGTCCCGACGCGTGTGTGCTAGTGAGCCGGA (double strand) [SLC30A5 promoter probe -156 to +46]”: no binding [2]; binds [3].
